Binding screen against folded nucleic acids

From ROBIN, a set of small-molecule microarray screens (doi:10.1002/anie.202211358).

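The test is a small-molecule microarray: each compound is printed twice on a reactive slide, and binding shows as fluorescence of the labelled oligonucleotide after washing. The data file lists only calls. An earlier report of the laboratory on the PreQ1, TPP and SAM-II riboswitches (doi:10.1038/s41467-019-09493-3) used 1 µM RNA for 2 h and required a mean Z-score above 3 (spot signal-to-noise against the whole library), a score well above that on a control array, and duplicate spots agreeing (coefficient of variation under 100); it then also set aside compounds that hit other targets, which this list keeps. The cut-offs behind this list may differ. These are primary screening calls, not affinities; a compound without a hit may have attached poorly or may still bind in solution.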 A compound is marked yes if it was called a hit and no if it was screened but was not. The compounds are a random part of those screened. A dash means that no call is listed here.

Oligonucleotides screened, 5′ to 3′:
PreQ1: PreQ1 riboswitch RNA pseudoknot, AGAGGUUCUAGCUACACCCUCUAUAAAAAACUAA. From B. subtilis. Hit rate about 0.7% of about 24,000 compounds.
TPP: TPP riboswitch RNA three-way junction, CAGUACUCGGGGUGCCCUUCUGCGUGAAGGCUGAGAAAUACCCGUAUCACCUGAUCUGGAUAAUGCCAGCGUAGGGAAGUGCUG. Hit rate about 0.7% of about 24,000 compounds.
SAM-II: SAM-II riboswitch RNA pseudoknot, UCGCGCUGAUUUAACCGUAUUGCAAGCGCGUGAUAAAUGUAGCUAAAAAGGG. Hit rate about 1% of about 21,000 compounds.

structure | PreQ1 | TPP | SAM-II
COc1cc(CNCCO)ccc1OCc1ccc(F)cc1 | no | no | no
CC(C)n1cc(C(=O)N[C@@H]2CNCC[C@H]2O)cn1 | no | no | no
Cc1cnc2c(N)cc(C)c(C)c2c1 | no | no | no
COc1ccc(NC(=O)c2sc3nc4c(cc3c2N)CCCCC4)cc1Cl | no | no | no
COc1cc(CNc2ccc(N3CCOCC3)c(C(=O)O)c2)ccc1OCc1cccs1 | no | no | no
CCC(=O)N[C@H]1CC[C@H](C(=O)N(C)c2ccc(-c3nc4ccccc4o3)cc2)C1 | no | no | no
Cc1nnsc1CN | no | no | no
OCCOc1ccc(CN2CC(Oc3ccccc3Cl)C2)cc1 | yes | yes | yes
CCC(CO)N(Cc1ccc(F)cc1)Cc1cc(Cl)c(O)c(OC)c1 (stereo not given) | no | no | no
Cc1ccc(-n2nc(CO)c(C(=O)NC(C)CCCc3ccccc3)n2)cc1C (stereo not given) | no | no | -
CCC(O)c1ccc(OCc2ccc(C(=O)OC)cc2)c(OC)c1 (stereo not given) | no | no | no
CCOc1ccccc1CNc1nnnn1C | no | no | no
Cc1c(Cl)cccc1Nc1nc2ccccc2n2cnnc12 | no | no | no
CCOc1c(CNCCCN2CCOCC2)cc(Cl)cc1OC | no | no | no
Cc1ccc(Nc2nc(NCCCO)nc3c2cnn3C)cc1C | no | no | -
CSc1nccc(N2CCC(NC(C)c3nc(C)cs3)CC2)n1 (stereo not given) | no | no | no
COC(=O)c1c(N)sc(C(=O)Nc2ccc(C)cc2C)c1C | no | no | no
CC(C)Oc1ccc(-c2[nH]c3c(C#N)cnn3c2NC2CCCC2)cc1 | no | no | -
COc1ccc(S(=O)(=O)N2CCN(c3cc(Nc4ccc(C)cc4)nc(C)n3)CC2)cc1C | no | no | -
Cc1nnc(SCC(=O)N2CCN(CCO)[C@@H]3CS(=O)(=O)C[C@@H]32)o1 | no | no | no
Nc1ccc(NC(=S)Nc2ccccc2)cc1 | no | no | yes
Cc1nc2nc(CN)nn2c(C)c1CCC(=O)Nc1ccccc1 | no | no | -
CC1=C(C(=O)OC(C)(C)C)C2(C(=O)Nc3ccccc32)C(C(=O)OC(C)(C)C)=C(N)O1 (stereo not given) | no | no | no
NC(=O)CCC(C(=O)O)N1C(=O)C2C3CCC(C3)C2C1=O (stereo not given) | no | no | no
Nc1c(C(=O)Nc2ccc(Cl)cc2)nnn1Cc1cccc(Br)c1 | no | no | no
CC(=O)c1ccc(NC2OCC(O)C(O)C2O)cc1 (stereo not given) | no | no | no
CN1CCN([C@H]2CN(CCn3c(=O)oc4ccccc43)C[C@@H]2O)CC1 | no | no | no
CCC(C)(C)c1ccc(Oc2cccc(C(=O)O)c2)cc1 | no | no | no
O=C(NCc1cccnc1N1CCN(c2ccccn2)CC1)C1CCNC1 (stereo not given) | no | no | no
CC1(C)CC2(CC(C)(c3csc(Nc4ccccc4)n3)OC2=O)C(=O)O1 (stereo not given) | no | no | no
CCCc1nc(-c2cc3cc(C)ccc3nc2NCc2ccco2)no1 | no | no | -
Cn1c(C(=O)N(CC=Cc2ccccc2)CCCO)cc(=O)n(C)c1=O | no | no | no
Cc1ccc(-c2nn3c(NC(C)C)cc(C)nc3c2C)cc1 | no | no | -
O=C(CNCCCc1ccccc1O)NCc1ccccc1F | no | no | no
CCN(CCOc1ccc(F)cc1)C(=O)c1ccc(CO)cc1 | no | no | no
COc1ccc(-c2cnc3c(-c4ccccc4)c(C)nn3c2N)cc1OC | no | no | no
COc1ccc(N2CCN(C[C@@H](C)CO)CC2=O)cc1 | no | no | no
O=C(c1ccc(C(F)(F)F)nc1O)N1CC[C@H]2NCCC[C@]2(CO)C1 | no | no | no
COCCNC(=O)CSc1nc(N)c2c3c(sc2n1)CCCC3 | no | no | no
COc1ccc(Cl)cc1Nc1nc(C)cc(C)c1C(N)=O | no | no | no
CCc1ccc(CN2CCC3(CCNCC3)CC2)o1 | no | no | no
CCC(O)Cn1nc(CC(N)=O)nc1CN1CCCC1=O (stereo not given) | no | no | no
COc1ccc(C(=O)c2sc3nc4c(c(C(F)(F)F)c3c2N)CCCC4)cc1 | no | no | no
CC1=C(c2cccc(Br)c2)S(=O)(=O)N=C1Nc1cc(C)ccc1C | no | no | -
O=S(=O)(c1ccccc1)c1ccccc1C(O)c1ccccc1 (stereo not given) | no | no | no
CCOC(=O)N1CCC(N2C(=O)c3ccccc3C2Nc2ccc(C)cc2)CC1 (stereo not given) | no | no | no
CN(C)c1ccc(/C=C2/C=C(c3ccc4c(c3)CCCC4)OC2=O)cc1 | no | no | no

Repeated from the top, 2 entries:

structure	PreQ1	TPP	SAM-II
COc1cc(CNCCO)ccc1OCc1ccc(F)cc1	no	no	no
CC(C)n1cc(C(=O)N[C@@H]2CNCC[C@H]2O)cn1	no	no	no